No constants are given. Whether binding was seen depends on the method and setting. Binding seen in cells or lysates may run through a third protein. These calls come from enrichment with a bait or labelling near it, and not all partners need be listed. Sequences can lack the tags named with a protein. Values belong to the molecule of their own block, whether it stands above or below them.
Assays:
DYRK4-Flag [1] = target: T1, DYRK4-Flag (UniProt Q9NR20); test: affinity purification with mass spectrometry
T1 sequence: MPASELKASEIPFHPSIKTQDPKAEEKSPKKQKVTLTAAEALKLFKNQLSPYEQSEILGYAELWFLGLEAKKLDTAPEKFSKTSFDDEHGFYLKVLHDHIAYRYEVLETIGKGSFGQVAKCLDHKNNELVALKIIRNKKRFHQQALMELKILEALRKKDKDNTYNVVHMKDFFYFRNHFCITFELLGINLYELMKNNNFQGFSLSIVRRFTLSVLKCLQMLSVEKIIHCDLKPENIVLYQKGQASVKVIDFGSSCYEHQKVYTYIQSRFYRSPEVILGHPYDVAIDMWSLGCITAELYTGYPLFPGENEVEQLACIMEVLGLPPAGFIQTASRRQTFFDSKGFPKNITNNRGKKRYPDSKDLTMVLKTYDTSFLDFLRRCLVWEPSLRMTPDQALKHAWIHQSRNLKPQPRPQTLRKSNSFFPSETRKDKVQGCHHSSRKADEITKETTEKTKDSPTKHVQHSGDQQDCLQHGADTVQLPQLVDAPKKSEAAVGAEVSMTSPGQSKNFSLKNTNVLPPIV

Chains of the proteins cited; added tags and fusions are not shown.
UniProt P19474: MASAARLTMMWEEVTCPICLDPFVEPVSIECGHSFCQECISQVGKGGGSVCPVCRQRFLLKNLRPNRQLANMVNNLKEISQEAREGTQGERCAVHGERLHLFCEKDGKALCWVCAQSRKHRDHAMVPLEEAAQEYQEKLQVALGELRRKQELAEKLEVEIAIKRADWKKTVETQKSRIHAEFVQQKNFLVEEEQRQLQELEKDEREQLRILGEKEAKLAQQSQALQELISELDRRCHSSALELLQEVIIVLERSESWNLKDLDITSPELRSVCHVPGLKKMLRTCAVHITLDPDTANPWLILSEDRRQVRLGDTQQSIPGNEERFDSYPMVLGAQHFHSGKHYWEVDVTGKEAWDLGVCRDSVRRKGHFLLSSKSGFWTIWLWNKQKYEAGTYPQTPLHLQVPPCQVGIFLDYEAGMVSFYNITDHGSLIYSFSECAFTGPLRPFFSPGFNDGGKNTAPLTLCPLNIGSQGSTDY

DYRK4-Flag [2] = target: T1, DYRK4-Flag; test: affinity purification with mass spectrometry; HEK293T cells transfected with control or DYRK4-Flag for 24 h; lysate purified with Flag beads, SDS-PAGE, Coomassie blue; bands cut and analysed by MS

- binding (DYRK4-Flag [1]): binds
Molecule: TRIM21 (from UniProt P19474 1-475)

- binding (DYRK4-Flag [2]): binds
B1: TRIM23 (protein, UniProt P36406 1-574)
chain: MATLVVNKLGAGVDSGRQGSRGTAVVKVLECGVCEDVFSLQGDKVPRLLLCGHTVCHDCLTRLPLHGRAIRCPFDRQVTDLGDSGVWGLKKNFALLELLERLQNGPIGQYGAAEESIGISGESIIRCDEDEAHLASVYCTVCATHLCSECSQVTHSTKTLAKHRRVPLADKPHEKTMCSQHQVHAIEFVCLEEGCQTSPLMCCVCKEYGKHQGHKHSVLEPEANQIRASILDMAHCIRTFTEEISDYSRKLVGIVQHIEGGEQIVEDGIGMAHTEHVPGTAENARSCIRAYFYDLHETLCRQEEMALSVVDAHVREKLIWLRQQQEDMTILLSEVSAACLHCEKTLQQDDCRVVLAKQEITRLLETLQKQQQQFTEVADHIQLDASIPVTFTKDNRVHIGPKMEIRVVTLGLDGAGKTTILFKLKQDEFMQPIPTIGFNVETVEYKNLKFTIWDVGGKHKLRPLWKHYYLNTQAVVFVVDSSHRDRISEAHSELAKLLTEKELRDALLLIFANKQDVAGALSVEEITELLSLHKLCCGRSWYIQGCDARSGMGLYEGLDWLSRQLVAAGVLDVA

- binding (DYRK4-Flag [1]): binds
B2: TRIM4 (protein, UniProt Q9C037 1-500)
chain: MEAEDIQEELTCPICLDYFQDPVSIECGHNFCRGCLHRNWAPGGGPFPCPECRHPSAPAALRPNWALARLTEKTQRRRLGPVPPGLCGRHWEPLRLFCEDDQRPVCLVCRESQEHQTHAMAPIDEAFESYRTGNFDIHVDEWKRRLIRLLLYHFKQEEKLLKSQRNLVAKMKKVMHLQDVEVKNATQWKDKIKSQRMRISTEFSKLHNFLVEEEDLFLQRLNKEEEETKKKLNENTLKLNQTIASLKKLILEVGEKSQAPTLELLQNPKEVLTRSEIQDVNYSLEAVKVKTVCQIPLMKEMLKRFQVAVNLAEDTAHPKLVFSQEGRYVKNTASASSWPVFSSAWNYFAGWRNPQKTAFVERFQHLPCVLGKNVFTSGKHYWEVESRDSLEVAVGVCREDVMGITDRSKMSPDVGIWAIYWSAAGYWPLIGFPGTPTQQEPALHRVGVYLDRGTGNVSFYSAVDGVHLHTFSCSSVSRLRPFFWLSPLASLVIPPVTDRK

- binding (DYRK4-Flag [1]): binds
B3: RNF138 (protein, UniProt Q8WVD3 1-245)
chain: MAEDLSAATSYTEDDFYCPVCQEVLKTPVRTTACQHVFCRKCFLTAMRESGAHCPLCRGNVTRRERACPERALDLENIMRKFSGSCRCCAKQIKFYRMRHHYKSCKKYQDEYGVSSIIPNFQISQDSVGNSNRSETSTSDNTETYQENTSSSGHPTFKCPLCQESNFTRQRLLDHCNSNHLFQIVPVTCPICVSLPWGDPSQITRNFVSHLNQRHQFDYGEFVNLQLDEETQYQTAVEESFQVNI

Source: paper PMC11811199 (EMBO Reports, 2024)
